Results are given in words; binding and its absence hold for the method and conditions named. Binding seen in cells or lysates may run through a third protein. Some results given as binding are weak or reduced against the parent protein; the word gives no strength.
Target: T1, Interferon-induced protein with tetratricopeptide repeats 3 (human (endogenous in FaDu and Cal27)) (UniProt O14879)
T1 sequence: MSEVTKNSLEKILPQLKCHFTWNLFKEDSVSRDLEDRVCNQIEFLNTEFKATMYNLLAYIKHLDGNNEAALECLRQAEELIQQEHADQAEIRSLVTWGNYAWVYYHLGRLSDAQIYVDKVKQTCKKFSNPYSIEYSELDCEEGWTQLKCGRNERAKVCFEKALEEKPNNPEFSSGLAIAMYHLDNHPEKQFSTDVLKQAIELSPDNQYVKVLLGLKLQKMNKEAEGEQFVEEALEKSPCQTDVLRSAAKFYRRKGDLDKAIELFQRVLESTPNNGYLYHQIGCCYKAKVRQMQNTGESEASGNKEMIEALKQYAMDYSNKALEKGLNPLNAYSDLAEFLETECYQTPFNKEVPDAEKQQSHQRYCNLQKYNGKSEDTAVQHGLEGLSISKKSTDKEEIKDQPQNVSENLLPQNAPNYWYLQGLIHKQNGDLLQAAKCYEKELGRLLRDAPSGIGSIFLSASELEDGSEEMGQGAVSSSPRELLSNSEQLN
Test: co-IP; FaDu and Cal27 cell lysates; 2 ug antibody or control IgG overnight at 4 °C, protein A+G agarose 3 h at 4 °C, washed with PBS, Western blotting

Protein sequences, listed by entry. Tags and fused reporters are not part of them. Residues count along the entry.
UniProt Q9NZQ7, residues 19-290: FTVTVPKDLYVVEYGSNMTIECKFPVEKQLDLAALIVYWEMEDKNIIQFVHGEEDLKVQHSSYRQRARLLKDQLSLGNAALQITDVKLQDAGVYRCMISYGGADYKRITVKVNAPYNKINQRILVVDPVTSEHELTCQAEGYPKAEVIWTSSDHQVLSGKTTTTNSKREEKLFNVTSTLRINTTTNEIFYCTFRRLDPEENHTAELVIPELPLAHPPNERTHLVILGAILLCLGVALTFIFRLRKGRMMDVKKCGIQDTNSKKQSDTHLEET

## Programmed death-ligand 1 (from UniProt Q9NZQ7 19-290)
  binding: binds
